How the values were obtained:
[1] = tested on: IL-1β; assay: LPS-stimulated PBMC cytokine production in vitro: IL-1β (ECL); format: cell-based; details: Homo sapiens, LPS 10 ng/ml, 24 h
Method: Samples of peripheral blood or buffy coats from healthy volunteers were used. […] At the end of the treatment the pro-inflammatory cytokines TNFα, IL-1β were measured by means of an electrochemiluminescence assay (ECL) using specific commercial antibodies.
The effect of the various doses of SAHA and TSA was measured as the percentage inhibition of production of the cytokine in question compared with untreated control cells. The concentration able to induce 50% inhibition of cell growth (IC50) was determined by linear regression.

[2] = tested on: IFNγ; assay: LPS-stimulated PBMC cytokine production in vitro: IFNγ (ELISA); details: Homo sapiens, 24 h, read-out: IFNγ IC50

- IC50 [1]: 0.1 µM
- IC50 [2]: 0.05 µM
Compound: O=C(CCCCCCC(=O)Nc1ccccc1)NO [SAHA, suberoylanilide hydroxamic acid]
